Assay results as given in paper PMC7819943, “Rice protein-binding microarrays: a tool to detect cis-acting elements near promoter regions in rice”.
Some of the results follow.

Chains of the proteins cited; added tags and fusions are not shown.
UniProt Q0JBA9, entry or part of it: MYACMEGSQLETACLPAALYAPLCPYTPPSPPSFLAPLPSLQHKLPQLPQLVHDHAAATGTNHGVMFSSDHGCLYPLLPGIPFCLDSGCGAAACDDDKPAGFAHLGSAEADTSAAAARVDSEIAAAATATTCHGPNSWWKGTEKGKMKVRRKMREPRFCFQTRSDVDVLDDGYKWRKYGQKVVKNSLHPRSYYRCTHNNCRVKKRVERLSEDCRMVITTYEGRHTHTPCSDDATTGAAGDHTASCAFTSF

target: OsWRKY34 (Oryza sativa, UniProt Q0JBA9 1-250); assay: protein-binding microarray (RPBM); PBS, 2% BSA, 51.3 ng/ul salmon testes DNA, 50 uM zinc acetate, 200 nM TF, 25 C, 1 h; high values mean tight binding; details: protein: recombinant; tags: N-terminal polyhistidine and DsRed monomer fusion (pET32a); label: CyDye5-dUTP incorporated in the synthesized complementary strand; 3' TTTTT single-stranded linker to array surface; dsDNA, one strand shown
Method in brief: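 The binding signal is fluorescence intensity per array feature (arbitrary units). Readings came from an Axon 4000B scanner after a washed, 2% BSA-blocked, double-stranded custom Agilent array had been incubated for 1 h at 25 °C with 200 nM protein and 50 µM zinc acetate. The protein was a Ni–NTA-purified transcription factor fused N-terminally to polyhistidine and DsRed, expressed in E. coli BL21-CodonPlus.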

Sequence | binding signal
CTCACCGTGTTCTCTGAGTTTATAAGGGGCAATTTTATCTCGGAGTCACCTAGTGCAG | 8940 fluorescence intensity (a.u.)
GACTTCGCTTCTTTTGTCTCCTCCTCGACGAATTGTCTCCCGGAGTCACCTAGTGCAG | 9240 fluorescence intensity (a.u.)
ATTTTTTTTCCCTAATTTTCGGTTTTCATTTTAACTATACCGGAGTCACCTAGTGCAG | 8520 fluorescence intensity (a.u.)
TCCCACGATCCTTTTTCTCCTTTCTTTTCTCTCCTTCTCTCGGAGTCACCTAGTGCAG | 10400 fluorescence intensity (a.u.)
CTAATCTGTTTTGTTTTCTGTGCATGGGATCAGTTCCCAACGGAGTCACCTAGTGCAG | 11800 fluorescence intensity (a.u.)
TACCTCTTCAGTACAGCTGCAGCTGCTGACTGCTCACTACCGGAGTCACCTAGTGCAG | 9480 fluorescence intensity (a.u.)
TAAAGACCTCACACACGTTGCAACGTACTACGAGCTTTTCCGGAGTCACCTAGTGCAG | 8950 fluorescence intensity (a.u.)
AGTCATAATAACTTCTTGCGCCAAAAGGCTTCTCAATTGTCGGAGTCACCTAGTGCAG | 8070 fluorescence intensity (a.u.)
TCAGTTACCTTCTCTCTTATTGCTACTGATGGTGCATATGCGGAGTCACCTAGTGCAG | 8180 fluorescence intensity (a.u.)
ATCCAGGCATTCACCAGCATATGTCAAGCAACTCGCAATTCGGAGTCACCTAGTGCAG | 10600 fluorescence intensity (a.u.)
TTCCACGGTTTTCTTTTTTCGGTTTTTATCTTTTCTTTTTCGGAGTCACCTAGTGCAG | 13200 fluorescence intensity (a.u.)
CTGTTGTCTGATGATCTGTGGTGGAGTGGTTATGGTGTGTCGGAGTCACCTAGTGCAG | 10000 fluorescence intensity (a.u.)
GTGCCTTTACCTGCATTTGGTGTGTTGCTGGTTAATTATGCGGAGTCACCTAGTGCAG | 9530 fluorescence intensity (a.u.)
GCGAGACAAATCTTTTAACCCTAATTGCCTCATGATTTGACGGAGTCACCTAGTGCAG | 9280 fluorescence intensity (a.u.)
TTGGACTGCTTTGATCTGCAGATCGGTGGACATTTTTCTACGGAGTCACCTAGTGCAG | 9250 fluorescence intensity (a.u.)
GTGGGTTGGTTGGGCCTGTTCAACGTGGTGTAGCGTTGATCGGAGTCACCTAGTGCAG | 9370 fluorescence intensity (a.u.)
TCGAATGCGCTGAATTCACATGTACACAACACCGTATACTCGGAGTCACCTAGTGCAG | 10100 fluorescence intensity (a.u.)
GTCCCTCTTCATTCCTTGACTTCTTCTCGTAAGTTAAGATCGGAGTCACCTAGTGCAG | 8300 fluorescence intensity (a.u.)
ATGGCGTTTGGGTTTGGCTCGGGTTGATCTGGATAAGGGACGGAGTCACCTAGTGCAG | 9020 fluorescence intensity (a.u.)
GTCTATTCCAAATCGGCATTTTGGTACTTTCGGTTTAGGTCGGAGTCACCTAGTGCAG | 8400 fluorescence intensity (a.u.)
ACAAACACACTATGTTTTTCAGTGCCTTGCTATATACATTCGGAGTCACCTAGTGCAG | 8240 fluorescence intensity (a.u.)

Some of the entries so far, tab-delimited:
Sequence	binding signal
CTCACCGTGTTCTCTGAGTTTATAAGGGGCAATTTTATCTCGGAGTCACCTAGTGCAG	8940 fluorescence intensity (a.u.)
ATTTTTTTTCCCTAATTTTCGGTTTTCATTTTAACTATACCGGAGTCACCTAGTGCAG	8520 fluorescence intensity (a.u.)
CTAATCTGTTTTGTTTTCTGTGCATGGGATCAGTTCCCAACGGAGTCACCTAGTGCAG	11800 fluorescence intensity (a.u.)
TCAGTTACCTTCTCTCTTATTGCTACTGATGGTGCATATGCGGAGTCACCTAGTGCAG	8180 fluorescence intensity (a.u.)
TTCCACGGTTTTCTTTTTTCGGTTTTTATCTTTTCTTTTTCGGAGTCACCTAGTGCAG	13200 fluorescence intensity (a.u.)
GCGAGACAAATCTTTTAACCCTAATTGCCTCATGATTTGACGGAGTCACCTAGTGCAG	9280 fluorescence intensity (a.u.)
ATGGCGTTTGGGTTTGGCTCGGGTTGATCTGGATAAGGGACGGAGTCACCTAGTGCAG	9020 fluorescence intensity (a.u.)
ACAAACACACTATGTTTTTCAGTGCCTTGCTATATACATTCGGAGTCACCTAGTGCAG	8240 fluorescence intensity (a.u.)

Next part.

Sequence | binding signal
ACGTTTCCATCTTATTTGATACATGTTGCTGCTCCATCTCCGGAGTCACCTAGTGCAG | 9160 fluorescence intensity (a.u.)
AGCCACCGTCCTCACGCACGCACCTTCACACACCACCGTCCGGAGTCACCTAGTGCAG | 10200 fluorescence intensity (a.u.)
GCCGTTGTTGTCGTCCTCTTCTCCTCCGACGTCGTCGTCGCGGAGTCACCTAGTGCAG | 8070 fluorescence intensity (a.u.)
TCCCGCTTCCATCTCACATTCAGGTTCATGTTCTCCTCAGCGGAGTCACCTAGTGCAG | 9130 fluorescence intensity (a.u.)
AAGCCATGCGCTCCCATCGCTTCTTCCTCACAAACTTTCCCGGAGTCACCTAGTGCAG | 8050 fluorescence intensity (a.u.)
TGAACTCCTAATACTGTCCTACCACTTCTACATGTCTTCTCGGAGTCACCTAGTGCAG | 11300 fluorescence intensity (a.u.)
ATATCTGATGTGACACGGCAAAAATTTTCACCCCTAGATTCGGAGTCACCTAGTGCAG | 8420 fluorescence intensity (a.u.)
AACAGTCAAATATATGCTAAAAAGTCAACGGTGTAGGAGTCGGAGTCACCTAGTGCAG | 14700 fluorescence intensity (a.u.)
CCCTCCCTCCATCCCTTGCTCGCTCGCGCCACAACGTTATCGGAGTCACCTAGTGCAG | 8620 fluorescence intensity (a.u.)
CGGGCGGCGGGTGCGGACTGCGGAGGAGGCTGGCGGGGCACGGAGTCACCTAGTGCAG | 8630 fluorescence intensity (a.u.)
GTTAGGTTGTTTATGAGTTTTTTTTTCACCTATTCGATAACGGAGTCACCTAGTGCAG | 9000 fluorescence intensity (a.u.)
TTCGTCTCCGTCTCCGTCTCCGTCTCGTCGCCGCCTAATCCGGAGTCACCTAGTGCAG | 13200 fluorescence intensity (a.u.)
TGGTTAAAAAGTCAACGGTGTCATACATTAAAATACGGAGCGGAGTCACCTAGTGCAG | 16300 fluorescence intensity (a.u.)
CAACTATCTAATTCTATTCATTTTGGTCAAATCTCATCTGCGGAGTCACCTAGTGCAG | 9510 fluorescence intensity (a.u.)
TCTTCTAATAATGTAATTAGTTAAACCGGTTTTATGTTTTCGGAGTCACCTAGTGCAG | 8170 fluorescence intensity (a.u.)
GTTCGTTACTTATGTTATGTTGCAGGTTGTTCGTCAGATACGGAGTCACCTAGTGCAG | 10700 fluorescence intensity (a.u.)
CCTTGCTTTTCCAACTTCTTGTCCATCACCTCCAGTTTCTCGGAGTCACCTAGTGCAG | 12700 fluorescence intensity (a.u.)
ACGATCTCCTCTCTCGGCGCCGCGGCCATCAATCCCGCGGCGGAGTCACCTAGTGCAG | 8860 fluorescence intensity (a.u.)
TTTTATTTTGCTAAAATTGATCCACATCTAGATTTTTATTCGGAGTCACCTAGTGCAG | 8450 fluorescence intensity (a.u.)
GAAGTTTGCCTTGTCGGCCGTCGTGTCCTTCTGCCGCTAACGGAGTCACCTAGTGCAG | 10900 fluorescence intensity (a.u.)
TAGGTTCTAGATTGTTTTTTCGCTGTTTTTTTTTTATTTTCGGAGTCACCTAGTGCAG | 13300 fluorescence intensity (a.u.)
